Measured values reported in patent publication CN109734804A.
These are yes or no findings as the source states them, for the method shown. Some binding calls cover weakened binding; strength is not graded here. Values belong to the binder of their own block, whether it stands above or below them.

Columns and labels:
[1] = target: T1, H3K64Ac片段 (组蛋白3第64位赖氨酸乙酰化修饰片段); experiment: ELISA, antigen coated, purified nanobody, anti-HA detection, OD405
T1 sequence (peptide, acetyl-lysine, K(Ac), at position 7 of the printed peptide (Lys64 of histone H3)): CELLIRKLP

[2] = target: T1, H3K64Ac片段 (组蛋白3第64位赖氨酸乙酰化修饰片段); experiment: ELISA of crude periplasmic extracts from panned clones, positive if OD405 > 3x control
[3] = target: H3K64片段 (组蛋白3第64位赖氨酸未修饰片段) (UniProt P68431); experiment: ELISA, antigen coated, purified nanobody, anti-HA detection, OD405
[4] = target: H3K64片段 (组蛋白3第64位赖氨酸未修饰片段) (UniProt P68431); experiment: ELISA of crude periplasmic extracts from panned clones, positive if OD405 > 3x control

B1: H3K64Ac-1 (VHH)
VHH: ESGGGSVQAGGSLRLSCAASGYTYRRYCMGWFRQAPGKEREGVAAIDVDGSTSYANSVKGRFTISKDNAKNTLYLQMNSLKPEDTAMYYCGAGACDCSGGYCSIARYKYWGQGTQVTVSS
binding [1]: binds
binding [2]: binds

B2: H3K64-3 (VHH)
VHH: ESGGGLVQPGGSLRLSCAASGFTFSSYGMGWVRQAPGKGLELVSSITSEGATYYADSVKGRFTISRDNAKNTVYLQLNSLKTEDMAMYYCAKDLGQISGQWEYNYWGQGTQVTVSS
binding [3]: binds
binding [1]: binds
binding [4]: binds

Results, then the binder that gave them:

binding [1]: binds
binding [2]: binds
B3: H3K64Ac-85 (VHH)
VHH: ESGGGSVQAGESLRLSCTASGYIESYCMGWFRQAPGKEREGVAAIDVDGSTSYANSVKGRFTISKDNAKNTLYLQMNSLKPEDTAMYYCGAGACDCSGGYCSIARYKYWGQGTQVTVSS

binding [1]: binds
binding [2]: binds
B4: H3K64Ac-77 (VHH)
VHH: ESGGGSVQAGGSLRLSCVGSGFDYSRSCLGWFRQAPGKEREGVAVIERDGRTKLAGSVHGRFTISKDNAKSTLYLQMNSLKPEDTAMYYCAARPWGYCSRDLNSARYTSWGQGTQVTVSS
